Compound in this test: CCc1cnccc1C(=O)Nc1cc2c(cc1F)NC(=O)CC2
Description: melting temperature shift (DMSO Tm minus MBE1-treated Tm) in cellular thermal proteome profiling; higher = less thermal stabilization by MBE1 (negative = stabilized by MBE1). Particulars: A375.

Amino acid sequences for entries named in this document (tags omitted). A change or cut given only in a name is not applied to a line headed by its entry.
UniProt Q86YS6: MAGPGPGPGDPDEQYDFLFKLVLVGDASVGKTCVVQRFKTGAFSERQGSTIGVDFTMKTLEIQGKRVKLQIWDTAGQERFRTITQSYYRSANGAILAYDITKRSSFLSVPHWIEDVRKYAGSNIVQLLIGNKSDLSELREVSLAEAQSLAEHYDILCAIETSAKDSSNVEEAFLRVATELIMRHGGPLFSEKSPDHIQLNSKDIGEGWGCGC
UniProt Q8N474: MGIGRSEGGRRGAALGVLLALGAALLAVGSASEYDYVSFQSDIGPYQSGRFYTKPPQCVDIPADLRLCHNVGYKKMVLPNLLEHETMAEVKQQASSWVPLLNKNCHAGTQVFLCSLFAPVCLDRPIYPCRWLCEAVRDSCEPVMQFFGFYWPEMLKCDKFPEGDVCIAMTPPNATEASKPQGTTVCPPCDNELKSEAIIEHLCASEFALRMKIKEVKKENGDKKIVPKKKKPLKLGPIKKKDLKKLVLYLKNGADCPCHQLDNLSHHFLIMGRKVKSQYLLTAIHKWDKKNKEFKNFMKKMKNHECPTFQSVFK
UniProt Q8N653: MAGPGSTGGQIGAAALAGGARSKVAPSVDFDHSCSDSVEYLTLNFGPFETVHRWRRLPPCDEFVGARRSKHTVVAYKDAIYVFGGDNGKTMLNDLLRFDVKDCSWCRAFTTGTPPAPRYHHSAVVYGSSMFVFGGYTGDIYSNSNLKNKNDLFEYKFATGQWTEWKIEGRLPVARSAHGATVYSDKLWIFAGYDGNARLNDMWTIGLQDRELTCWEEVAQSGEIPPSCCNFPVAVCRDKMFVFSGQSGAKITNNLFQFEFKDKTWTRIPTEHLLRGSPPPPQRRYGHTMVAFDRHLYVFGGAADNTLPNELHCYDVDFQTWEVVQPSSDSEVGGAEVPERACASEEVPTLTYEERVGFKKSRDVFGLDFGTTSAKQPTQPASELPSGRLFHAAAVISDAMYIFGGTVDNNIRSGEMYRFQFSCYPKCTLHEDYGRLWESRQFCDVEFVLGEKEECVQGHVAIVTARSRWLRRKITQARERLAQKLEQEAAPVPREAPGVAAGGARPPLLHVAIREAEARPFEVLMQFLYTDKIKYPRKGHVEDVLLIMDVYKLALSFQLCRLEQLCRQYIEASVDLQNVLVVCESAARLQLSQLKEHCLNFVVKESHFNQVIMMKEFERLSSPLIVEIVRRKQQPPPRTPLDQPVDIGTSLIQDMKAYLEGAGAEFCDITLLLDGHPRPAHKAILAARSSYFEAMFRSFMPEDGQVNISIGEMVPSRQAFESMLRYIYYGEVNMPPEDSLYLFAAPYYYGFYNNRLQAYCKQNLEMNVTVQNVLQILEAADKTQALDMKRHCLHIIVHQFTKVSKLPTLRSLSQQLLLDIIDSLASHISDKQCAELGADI
UniProt Q86XK2: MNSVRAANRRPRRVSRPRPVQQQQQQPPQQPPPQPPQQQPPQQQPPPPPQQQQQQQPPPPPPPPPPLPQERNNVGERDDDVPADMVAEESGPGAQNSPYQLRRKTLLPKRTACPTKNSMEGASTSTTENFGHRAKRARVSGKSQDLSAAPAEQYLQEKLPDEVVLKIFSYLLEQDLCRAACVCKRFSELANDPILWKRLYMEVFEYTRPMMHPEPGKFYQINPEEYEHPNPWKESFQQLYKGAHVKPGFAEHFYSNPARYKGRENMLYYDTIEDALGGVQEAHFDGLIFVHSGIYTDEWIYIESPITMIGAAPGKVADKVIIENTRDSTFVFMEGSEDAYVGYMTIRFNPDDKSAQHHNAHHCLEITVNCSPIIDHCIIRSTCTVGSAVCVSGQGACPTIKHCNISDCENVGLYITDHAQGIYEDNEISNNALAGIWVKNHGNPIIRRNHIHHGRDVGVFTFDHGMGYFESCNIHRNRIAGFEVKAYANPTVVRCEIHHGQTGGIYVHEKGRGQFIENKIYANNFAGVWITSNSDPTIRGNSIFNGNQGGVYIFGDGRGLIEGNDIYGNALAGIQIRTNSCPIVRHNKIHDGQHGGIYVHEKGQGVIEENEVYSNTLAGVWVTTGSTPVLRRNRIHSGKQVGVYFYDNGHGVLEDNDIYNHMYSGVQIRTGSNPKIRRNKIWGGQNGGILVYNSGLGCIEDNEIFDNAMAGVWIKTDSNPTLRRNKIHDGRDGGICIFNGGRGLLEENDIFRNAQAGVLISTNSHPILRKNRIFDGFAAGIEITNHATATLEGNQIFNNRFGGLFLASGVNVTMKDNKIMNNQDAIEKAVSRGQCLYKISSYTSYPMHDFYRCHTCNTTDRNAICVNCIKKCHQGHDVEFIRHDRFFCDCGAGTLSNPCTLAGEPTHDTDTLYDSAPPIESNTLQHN
UniProt Q8IVF7, whole entry: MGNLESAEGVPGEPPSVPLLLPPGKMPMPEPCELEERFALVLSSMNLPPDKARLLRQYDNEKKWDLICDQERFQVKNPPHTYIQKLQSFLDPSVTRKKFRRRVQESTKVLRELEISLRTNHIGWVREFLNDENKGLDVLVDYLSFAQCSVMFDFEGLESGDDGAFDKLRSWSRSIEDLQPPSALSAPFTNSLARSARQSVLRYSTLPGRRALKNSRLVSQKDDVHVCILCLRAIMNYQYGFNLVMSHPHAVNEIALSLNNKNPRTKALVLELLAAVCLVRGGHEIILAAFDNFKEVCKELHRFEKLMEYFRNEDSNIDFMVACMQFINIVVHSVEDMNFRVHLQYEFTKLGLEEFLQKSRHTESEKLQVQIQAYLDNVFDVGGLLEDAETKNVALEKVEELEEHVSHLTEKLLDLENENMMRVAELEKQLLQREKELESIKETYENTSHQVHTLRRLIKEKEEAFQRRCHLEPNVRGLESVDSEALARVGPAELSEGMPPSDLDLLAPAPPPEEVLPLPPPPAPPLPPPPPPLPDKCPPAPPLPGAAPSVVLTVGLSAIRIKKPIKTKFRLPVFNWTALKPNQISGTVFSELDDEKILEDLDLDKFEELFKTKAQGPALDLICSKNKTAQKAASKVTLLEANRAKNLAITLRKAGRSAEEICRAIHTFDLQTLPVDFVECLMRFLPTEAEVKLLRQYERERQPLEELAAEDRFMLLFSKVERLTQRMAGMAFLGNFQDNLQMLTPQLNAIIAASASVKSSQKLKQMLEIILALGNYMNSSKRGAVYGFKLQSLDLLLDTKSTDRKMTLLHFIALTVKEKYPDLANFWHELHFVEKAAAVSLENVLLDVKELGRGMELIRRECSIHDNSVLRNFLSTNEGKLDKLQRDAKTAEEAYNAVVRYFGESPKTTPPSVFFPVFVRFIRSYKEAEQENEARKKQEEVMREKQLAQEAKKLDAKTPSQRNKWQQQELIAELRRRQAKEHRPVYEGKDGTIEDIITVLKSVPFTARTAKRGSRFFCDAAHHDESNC
UniProt Q86XA9: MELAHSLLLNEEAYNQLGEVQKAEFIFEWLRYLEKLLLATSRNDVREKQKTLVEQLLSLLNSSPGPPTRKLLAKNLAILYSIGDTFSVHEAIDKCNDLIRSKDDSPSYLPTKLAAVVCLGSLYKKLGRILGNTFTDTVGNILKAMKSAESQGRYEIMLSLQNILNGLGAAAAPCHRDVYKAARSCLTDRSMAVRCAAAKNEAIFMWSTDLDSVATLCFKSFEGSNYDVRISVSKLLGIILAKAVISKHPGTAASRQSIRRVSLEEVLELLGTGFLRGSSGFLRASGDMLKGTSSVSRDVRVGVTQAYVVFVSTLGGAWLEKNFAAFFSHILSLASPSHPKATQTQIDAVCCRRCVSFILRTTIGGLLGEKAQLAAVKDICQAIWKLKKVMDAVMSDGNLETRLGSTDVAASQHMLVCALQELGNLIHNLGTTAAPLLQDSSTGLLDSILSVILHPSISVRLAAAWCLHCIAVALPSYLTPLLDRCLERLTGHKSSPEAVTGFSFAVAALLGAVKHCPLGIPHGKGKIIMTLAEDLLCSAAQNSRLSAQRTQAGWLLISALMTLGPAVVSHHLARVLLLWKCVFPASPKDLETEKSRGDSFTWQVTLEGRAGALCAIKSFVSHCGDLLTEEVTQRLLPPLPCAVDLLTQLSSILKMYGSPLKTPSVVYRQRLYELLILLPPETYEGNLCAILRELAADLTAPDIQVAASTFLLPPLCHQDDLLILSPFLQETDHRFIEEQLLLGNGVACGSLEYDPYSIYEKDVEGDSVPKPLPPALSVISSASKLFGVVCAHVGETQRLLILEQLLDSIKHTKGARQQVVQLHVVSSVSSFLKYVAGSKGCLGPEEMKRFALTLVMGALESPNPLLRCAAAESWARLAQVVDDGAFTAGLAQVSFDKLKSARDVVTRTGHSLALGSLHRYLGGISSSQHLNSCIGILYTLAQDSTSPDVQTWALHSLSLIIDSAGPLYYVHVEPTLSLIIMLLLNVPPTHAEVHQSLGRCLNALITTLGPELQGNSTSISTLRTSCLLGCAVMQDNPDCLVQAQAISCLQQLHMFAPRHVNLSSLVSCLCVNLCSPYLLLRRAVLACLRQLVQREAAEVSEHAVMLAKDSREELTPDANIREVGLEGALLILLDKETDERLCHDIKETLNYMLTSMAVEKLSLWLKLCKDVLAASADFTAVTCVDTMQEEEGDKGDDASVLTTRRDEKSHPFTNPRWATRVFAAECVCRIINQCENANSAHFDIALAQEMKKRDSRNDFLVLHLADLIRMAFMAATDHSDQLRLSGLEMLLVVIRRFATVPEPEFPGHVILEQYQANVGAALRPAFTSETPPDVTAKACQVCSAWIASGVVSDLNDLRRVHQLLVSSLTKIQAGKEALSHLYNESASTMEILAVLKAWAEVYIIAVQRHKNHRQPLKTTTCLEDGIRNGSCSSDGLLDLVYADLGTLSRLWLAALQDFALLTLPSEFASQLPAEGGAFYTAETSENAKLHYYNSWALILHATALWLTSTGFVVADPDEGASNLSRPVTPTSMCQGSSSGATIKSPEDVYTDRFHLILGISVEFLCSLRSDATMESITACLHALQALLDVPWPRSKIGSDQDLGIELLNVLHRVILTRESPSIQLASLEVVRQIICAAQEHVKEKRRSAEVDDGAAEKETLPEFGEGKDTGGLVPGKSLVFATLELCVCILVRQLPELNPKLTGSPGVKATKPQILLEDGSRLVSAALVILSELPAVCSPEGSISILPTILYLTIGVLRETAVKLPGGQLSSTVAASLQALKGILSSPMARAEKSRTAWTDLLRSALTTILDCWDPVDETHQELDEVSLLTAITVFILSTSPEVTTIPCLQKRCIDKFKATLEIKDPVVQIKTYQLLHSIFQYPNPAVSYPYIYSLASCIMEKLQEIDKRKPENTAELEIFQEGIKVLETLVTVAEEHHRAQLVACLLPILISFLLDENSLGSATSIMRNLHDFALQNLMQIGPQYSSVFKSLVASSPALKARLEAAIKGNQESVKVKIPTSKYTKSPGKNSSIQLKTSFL
UniProt Q8IXH7, whole entry: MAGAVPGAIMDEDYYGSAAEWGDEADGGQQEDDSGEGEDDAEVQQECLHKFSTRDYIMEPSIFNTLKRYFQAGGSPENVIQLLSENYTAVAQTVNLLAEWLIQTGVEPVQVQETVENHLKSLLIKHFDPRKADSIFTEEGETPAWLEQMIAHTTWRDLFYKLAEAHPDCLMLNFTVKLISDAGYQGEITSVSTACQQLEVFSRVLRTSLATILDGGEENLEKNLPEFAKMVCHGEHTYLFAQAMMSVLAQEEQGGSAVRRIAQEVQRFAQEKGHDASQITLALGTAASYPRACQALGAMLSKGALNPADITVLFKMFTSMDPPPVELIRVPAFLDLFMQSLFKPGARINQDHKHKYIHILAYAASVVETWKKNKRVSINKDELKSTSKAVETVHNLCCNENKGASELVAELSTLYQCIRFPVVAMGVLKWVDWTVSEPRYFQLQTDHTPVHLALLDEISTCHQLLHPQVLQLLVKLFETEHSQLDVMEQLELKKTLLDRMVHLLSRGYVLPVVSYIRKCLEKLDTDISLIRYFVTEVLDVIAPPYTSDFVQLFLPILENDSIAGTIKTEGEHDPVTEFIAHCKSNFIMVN
UniProt Q8IVB5: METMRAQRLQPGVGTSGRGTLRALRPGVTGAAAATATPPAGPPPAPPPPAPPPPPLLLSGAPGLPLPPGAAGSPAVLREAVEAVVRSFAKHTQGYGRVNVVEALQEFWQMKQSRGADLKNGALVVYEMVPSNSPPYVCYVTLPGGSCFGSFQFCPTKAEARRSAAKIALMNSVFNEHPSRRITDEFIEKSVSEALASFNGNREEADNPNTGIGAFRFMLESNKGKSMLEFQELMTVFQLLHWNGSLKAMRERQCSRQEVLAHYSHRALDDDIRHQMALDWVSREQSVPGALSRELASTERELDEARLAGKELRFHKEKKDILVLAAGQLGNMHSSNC
UniProt Q8N5K1: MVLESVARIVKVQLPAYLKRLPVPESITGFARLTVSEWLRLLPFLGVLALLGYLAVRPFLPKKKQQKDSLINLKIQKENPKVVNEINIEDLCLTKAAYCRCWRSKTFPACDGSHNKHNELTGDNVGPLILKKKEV
UniProt Q8IZQ5, whole entry: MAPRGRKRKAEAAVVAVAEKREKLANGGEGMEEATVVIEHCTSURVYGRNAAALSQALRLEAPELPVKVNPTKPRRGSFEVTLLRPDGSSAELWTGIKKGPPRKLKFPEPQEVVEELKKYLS

The other results are listed elsewhere or left out. Single values of this set are uncertain.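 Tm was set to 64 °C where no melting was found, and many curves are irregular.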

Regarding RAB43 (UniProt Q86YS6), the melting temperature shift runs as follows: (MBE1 concentration: 100 nM) -2.82 °C; (MBE1 concentration: 1 uM) -0.751 °C.

As for UniProt Q8N1G0, the melting temperature shift (MBE1 concentration: 100 nM) is -0.601 °C and the melting temperature shift (MBE1 concentration: 1 uM) was -0.545 °C.

With TMEM192 (UniProt Q8IY95), the melting temperature shift by setting is: (MBE1 concentration: 100 nM) -2.66 °C; (MBE1 concentration: 1 uM) -0.148 °C.

For UniProt Q8IWE5, the melting temperature shift runs as follows: (MBE1 concentration: 100 nM) -0.0672 °C; (MBE1 concentration: 1 uM) 1.48 °C.

UniProt Q86VX9: the melting temperature shift runs as follows: (MBE1 concentration: 100 nM) 1.87 °C; (MBE1 concentration: 1 uM) 0.446 °C.

Turning to UniProt Q8N474, the melting temperature shift was -1.34 °C (MBE1 concentration: 100 nM) and -4.12 °C (MBE1 concentration: 1 uM).

In the case of METTL16 (UniProt Q86W50), the melting temperature shift by setting is: (MBE1 concentration: 100 nM) 0.366 °C; (MBE1 concentration: 1 uM) 0.33 °C.

As for UniProt Q8IYK4, the melting temperature shift was -1.13 °C (MBE1 concentration: 100 nM) and -1.31 °C (MBE1 concentration: 1 uM).

In the case of MFN1 (UniProt Q8IWA4), the melting temperature shift was 0.391 °C (MBE1 concentration: 100 nM) and -0.537 °C (MBE1 concentration: 1 uM).

With UniProt Q8N4C6, the melting temperature shift (MBE1 concentration: 100 nM) was determined as 0.721 °C and the melting temperature shift (MBE1 concentration: 1 uM) came to 3.82 °C.

In the case of CARM1 (UniProt Q86X55), the melting temperature shift (MBE1 concentration: 100 nM) is -0.556 °C and the melting temperature shift (MBE1 concentration: 1 uM) was -0.0427 °C.

Turning to MINK1 (UniProt Q8N4C8), the melting temperature shift reads like this: (MBE1 concentration: 100 nM) 0.256 °C; (MBE1 concentration: 1 uM) 0.672 °C.

For the target P3H2 (UniProt Q8IVL5), the melting temperature shift by setting is: (MBE1 concentration: 100 nM) -1 °C; (MBE1 concentration: 1 uM) -0.652 °C.

UniProt Q8IYH5: the melting temperature shift is -1.42 °C (MBE1 concentration: 100 nM) and -1.15 °C (MBE1 concentration: 1 uM).

As to PHF6 (UniProt Q8IWS0), the melting temperature shift is, setting by setting: (MBE1 concentration: 100 nM) -0.442 °C; (MBE1 concentration: 1 uM) -1.5 °C.

Turning to UniProt Q8IY21, the melting temperature shift (MBE1 concentration: 100 nM) was 0.977 °C and the melting temperature shift (MBE1 concentration: 1 uM) was 0.165 °C.

Take RPAP2 (UniProt Q8IXW5): the melting temperature shift was -0.4 °C (MBE1 concentration: 100 nM) and -0.193 °C (MBE1 concentration: 1 uM).

Consider CCAR2 (UniProt Q8N163), for which the melting temperature shift is -0.405 °C (MBE1 concentration: 100 nM) and -0.527 °C (MBE1 concentration: 1 uM).

For the target TTC39C (UniProt Q8N584), the melting temperature shift runs as follows: (MBE1 concentration: 100 nM) -1.05 °C; (MBE1 concentration: 1 uM) 0.263 °C.

Turning to SMYD4 (UniProt Q8IYR2), the melting temperature shift reads like this: (MBE1 concentration: 100 nM) -0.457 °C; (MBE1 concentration: 1 uM) -0.154 °C.

For the target UniProt Q8N612, the melting temperature shift is, setting by setting: (MBE1 concentration: 100 nM) 0.171 °C; (MBE1 concentration: 1 uM) 0.653 °C.

Take LZTR1 (UniProt Q8N653): the melting temperature shift is -0.509 °C (MBE1 concentration: 100 nM) and -0.0705 °C (MBE1 concentration: 1 uM).

As to UniProt Q8N0S6, the melting temperature shift was -1.62 °C (MBE1 concentration: 100 nM) and 0.675 °C (MBE1 concentration: 1 uM).

Take CACUL1 (UniProt Q86Y37): the melting temperature shift runs as follows: (MBE1 concentration: 100 nM) -0.718 °C; (MBE1 concentration: 1 uM) -0.167 °C.

UniProt Q8IXS2: the melting temperature shift reads like this: (MBE1 concentration: 100 nM) -2.18 °C; (MBE1 concentration: 1 uM) 3.87 °C.

Regarding HOOK3 (UniProt Q86VS8), the melting temperature shift by setting is: (MBE1 concentration: 100 nM) 0.33 °C; (MBE1 concentration: 1 uM) -0.263 °C.

Regarding UniProt Q8N4N3, the melting temperature shift (MBE1 concentration: 100 nM) is -1.45 °C and the melting temperature shift (MBE1 concentration: 1 uM) is -0.39 °C.

For AFAP1 (UniProt Q8N556), the melting temperature shift runs as follows: (MBE1 concentration: 100 nM) -1.33 °C; (MBE1 concentration: 1 uM) -0.692 °C.

For the target SUGP1 (UniProt Q8IWZ8), the melting temperature shift (MBE1 concentration: 100 nM) is -0.353 °C and the melting temperature shift (MBE1 concentration: 1 uM) is -0.786 °C.

ARRDC1 (UniProt Q8N5I2): the melting temperature shift by setting is: (MBE1 concentration: 100 nM) -0.74 °C; (MBE1 concentration: 1 uM) 0.168 °C.

Consider MINA (UniProt Q8IUF8), for which the melting temperature shift is 0.965 °C (MBE1 concentration: 100 nM) and 1.26 °C (MBE1 concentration: 1 uM).

MAP4K3 (UniProt Q8IVH8): the melting temperature shift is, setting by setting: (MBE1 concentration: 100 nM) 0.568 °C; (MBE1 concentration: 1 uM) 0.495 °C.

With UniProt Q8N302, the melting temperature shift (MBE1 concentration: 100 nM) was -1.46 °C and the melting temperature shift (MBE1 concentration: 1 uM) is -0.584 °C.

As for UniProt Q86XK2, the melting temperature shift (MBE1 concentration: 100 nM) is -0.908 °C and the melting temperature shift (MBE1 concentration: 1 uM) was 1.15 °C.

Take LYSMD2 (UniProt Q8IV50): the melting temperature shift (MBE1 concentration: 100 nM) was -1.13 °C and the melting temperature shift (MBE1 concentration: 1 uM) is -1.1 °C.

Regarding GTPBP8 (UniProt Q8N3Z3), the melting temperature shift (MBE1 concentration: 100 nM) is -0.494 °C and the melting temperature shift (MBE1 concentration: 1 uM) is -0.482 °C.

For the target UniProt Q8N4A0, the melting temperature shift (MBE1 concentration: 100 nM) stood at 0.678 °C and the melting temperature shift (MBE1 concentration: 1 uM) was 0.898 °C.

Consider ASCC3 (UniProt Q8N3C0), for which the melting temperature shift was -0.57 °C (MBE1 concentration: 100 nM) and -0.545 °C (MBE1 concentration: 1 uM).

For CPNE8 (UniProt Q86YQ8), the melting temperature shift runs as follows: (MBE1 concentration: 100 nM) -0.507 °C; (MBE1 concentration: 1 uM) 0.186 °C.

Take TAX1BP1 (UniProt Q86VP1): the melting temperature shift turned out to be 1.43 °C (MBE1 concentration: 100 nM) and 1.45 °C (MBE1 concentration: 1 uM).

Take UniProt Q8IVF7: the melting temperature shift reads like this: (MBE1 concentration: 100 nM) -0.475 °C; (MBE1 concentration: 1 uM) -0.598 °C.

Regarding UniProt Q8IY26, the melting temperature shift (MBE1 concentration: 100 nM) is -0.588 °C and the melting temperature shift (MBE1 concentration: 1 uM) is -0.0122 °C.

On to ZC3HC1 (UniProt Q86WB0), for which the melting temperature shift is, setting by setting: (MBE1 concentration: 100 nM) -0.734 °C; (MBE1 concentration: 1 uM) -0.576 °C.

As for PPFIBP1 (UniProt Q86W92), the melting temperature shift is, setting by setting: (MBE1 concentration: 100 nM) -0.814 °C; (MBE1 concentration: 1 uM) -0.306 °C.

Take UniProt Q8N1W1: the melting temperature shift (MBE1 concentration: 100 nM) is -0.108 °C and the melting temperature shift (MBE1 concentration: 1 uM) was -0.287 °C.

As to UniProt Q8N4S0, the melting temperature shift by setting is: (MBE1 concentration: 100 nM) 0.311 °C; (MBE1 concentration: 1 uM) -0.58 °C.

In the case of PLD3 (UniProt Q8IV08), the melting temperature shift is, setting by setting: (MBE1 concentration: 100 nM) -2.5 °C; (MBE1 concentration: 1 uM) 0.159 °C.

On to MPP5 (UniProt Q8N3R9), for which the melting temperature shift is, setting by setting: (MBE1 concentration: 100 nM) -1.34 °C; (MBE1 concentration: 1 uM) -0.928 °C.

With UniProt Q8IXM2, the melting temperature shift reads like this: (MBE1 concentration: 100 nM) -0.999 °C; (MBE1 concentration: 1 uM) -0.429 °C.

Regarding HEATR5A (UniProt Q86XA9), the melting temperature shift amounted to 0.714 °C (MBE1 concentration: 100 nM) and 0.482 °C (MBE1 concentration: 1 uM).

Take SIRT6 (UniProt Q8N6T7): the melting temperature shift (MBE1 concentration: 100 nM) was -0.278 °C and the melting temperature shift (MBE1 concentration: 1 uM) was -0.715 °C.

Turning to RHOT2 (UniProt Q8IXI1), the melting temperature shift is, setting by setting: (MBE1 concentration: 100 nM) 0.818 °C; (MBE1 concentration: 1 uM) -0.0611 °C.

Consider PAF1 (UniProt Q8N7H5), for which the melting temperature shift runs as follows: (MBE1 concentration: 100 nM) -0.032 °C; (MBE1 concentration: 1 uM) -0.115 °C.

On to CHSY1 (UniProt Q86X52), for which the melting temperature shift turned out to be 0.611 °C (MBE1 concentration: 100 nM) and 0.464 °C (MBE1 concentration: 1 uM).

In the case of Q8IXS6 (UniProt Q9Y2D5), the melting temperature shift runs as follows: (MBE1 concentration: 100 nM) -1.6 °C; (MBE1 concentration: 1 uM) 0.821 °C.

Take GHDC (UniProt Q8N2G8): the melting temperature shift was -0.315 °C (MBE1 concentration: 100 nM) and 0.53 °C (MBE1 concentration: 1 uM).

For UniProt Q8IXH7, the melting temperature shift by setting is: (MBE1 concentration: 100 nM) -0.545 °C; (MBE1 concentration: 1 uM) -0.448 °C.

With LIX1L (UniProt Q8IVB5), the melting temperature shift by setting is: (MBE1 concentration: 100 nM) -0.792 °C; (MBE1 concentration: 1 uM) -0.527 °C.

In the case of UBR1 (UniProt Q8IWV7), the melting temperature shift is -0.892 °C (MBE1 concentration: 100 nM) and -0.591 °C (MBE1 concentration: 1 uM).

UniProt Q8N5Z5: the melting temperature shift is -0.221 °C (MBE1 concentration: 100 nM) and 0.771 °C (MBE1 concentration: 1 uM).

In the case of PLCD3 (UniProt Q8N3E9), the melting temperature shift by setting is: (MBE1 concentration: 100 nM) 0.94 °C; (MBE1 concentration: 1 uM) 0.305 °C.

For the target SRRM1 (UniProt Q8IYB3), the melting temperature shift was -1.27 °C (MBE1 concentration: 100 nM) and 0.202 °C (MBE1 concentration: 1 uM).

Consider WDFY3 (UniProt Q8IZQ1), for which the melting temperature shift by setting is: (MBE1 concentration: 100 nM) -2.72 °C; (MBE1 concentration: 1 uM) -0.531 °C.

Regarding UniProt Q8N6M3, the melting temperature shift runs as follows: (MBE1 concentration: 100 nM) -0.577 °C; (MBE1 concentration: 1 uM) 0.424 °C.

Take RALGPS2 (UniProt Q86X27): the melting temperature shift (MBE1 concentration: 100 nM) was found to be 0.702 °C and the melting temperature shift (MBE1 concentration: 1 uM) was -0.318 °C.

In the case of CHERP (UniProt Q8IWX8), the melting temperature shift reads like this: (MBE1 concentration: 100 nM) -0.404 °C; (MBE1 concentration: 1 uM) -0.288 °C.

For CCDC25 (UniProt Q86WR0), the melting temperature shift is 0.586 °C (MBE1 concentration: 100 nM) and 0.684 °C (MBE1 concentration: 1 uM).

With UniProt Q8N5D0, the melting temperature shift is, setting by setting: (MBE1 concentration: 100 nM) 1.4 °C; (MBE1 concentration: 1 uM) 0.256 °C.

For CISD2 (UniProt Q8N5K1), the melting temperature shift by setting is: (MBE1 concentration: 100 nM) -0.269 °C; (MBE1 concentration: 1 uM) -2.05 °C.

As to UniProt Q8IZQ5, the melting temperature shift runs as follows: (MBE1 concentration: 100 nM) -1.33 °C; (MBE1 concentration: 1 uM) -1.18 °C.

As to TMEM199 (UniProt Q8N511), the melting temperature shift runs as follows: (MBE1 concentration: 100 nM) -0.946 °C; (MBE1 concentration: 1 uM) 0.434 °C.

The values above are taken from the supplement of paper PMC12595434, “Development of retinoid nuclear receptor pathway antagonists through targeting aldehyde dehydrogenase 1A3” (iScience, 2025).
